This is an account of results in the M2OR odorant receptor database.

Molecules are shown by their SMILES. Only a part is listed here, and it is no random draw. Calls are pooled over several reports, among them a noisy single-well screen. The list shows a part of the results.
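Note: active if original authors judged signal statistically different from baseline.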

For the first assay, the system named is T1, OR1S1.
T1 sequence (whole entry): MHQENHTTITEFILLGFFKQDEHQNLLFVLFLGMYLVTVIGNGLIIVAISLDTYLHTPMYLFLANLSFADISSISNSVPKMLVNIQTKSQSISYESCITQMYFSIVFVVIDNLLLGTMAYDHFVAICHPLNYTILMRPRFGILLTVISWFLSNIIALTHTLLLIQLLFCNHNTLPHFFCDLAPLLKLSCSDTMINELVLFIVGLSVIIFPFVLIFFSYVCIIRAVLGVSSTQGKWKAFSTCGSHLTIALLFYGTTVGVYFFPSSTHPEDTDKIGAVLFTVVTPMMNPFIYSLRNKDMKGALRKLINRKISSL
The settings on record: stereoisomer not certain. In a few lines: (§1)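 Transient luciferase assays in mammalian cell lines were common, though methods varied by source. The values come from published papers and their supplementary material, with extra details from the original authors when needed. Responsive refers to a measured signal the original authors judged statistically different from baseline, and non-responsive (inactive) to the remainder.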
Consider `c1cnccn1`, for which the “odorant receptor agonist call” value was “inactive”.
The same measure, in the same setting: the same measure for `O=C1CCCCCCCCCCCC(=O)OCCO1`: “inactive”; for `CCCCCCOC(=O)CCC`: “inactive”; for `CC(C)C(=O)O`: “inactive”.
The same measure, in the same setting: the result for `c1ccc(Oc2ccccc2)cc1` reads “inactive”.
In the case of `CC(=O)OC(C)(C)C1CC=C(C)CC1` (stereo unspecified), the “odorant receptor agonist call” value is “inactive”.
Still for that read-out and setting: the same measure for `C=C(C)C1CCC2=CC(=O)CC(C)C2(C)C1` (stereo unspecified): “active”; for `COc1ccccc1O`: “inactive”.

The subject of another assay is T2, OR1S2.
T2 sequence (whole entry): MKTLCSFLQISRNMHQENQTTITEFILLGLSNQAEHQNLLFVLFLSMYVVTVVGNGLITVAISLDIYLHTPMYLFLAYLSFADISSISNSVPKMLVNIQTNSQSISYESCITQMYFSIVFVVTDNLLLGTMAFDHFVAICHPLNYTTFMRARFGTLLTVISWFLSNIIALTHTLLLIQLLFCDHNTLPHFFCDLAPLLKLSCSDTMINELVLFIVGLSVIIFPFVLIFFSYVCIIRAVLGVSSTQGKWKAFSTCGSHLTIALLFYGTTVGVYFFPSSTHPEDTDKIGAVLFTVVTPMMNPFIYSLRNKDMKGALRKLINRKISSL
To be noted: stereoisomer not certain. Summed up: as §1
Consider `C=CCSCC=C`, for which the “odorant receptor agonist call” value is “inactive”.
The same measure, in the same setting: the result for `CC1=CCC(C(C)(C)O)CC1` (stereo unspecified) reads “inactive”; that for `CC12C=CCC1C1CCC3=CC(=O)CCC3(C)C1CC2` (stereo unspecified), “inactive”.
Same read-out and setting: the same measure for `CCCCCCCC=CC=O`: “inactive”.
Same read-out and setting: the result for `CCCCCCCCCC=O` reads “inactive”.
On to `CC(=O)OCC=C(C)CCC=C(C)C`, for which the “odorant receptor agonist call” value was “inactive”.
The same measure, in the same setting: the result for `COc1cc(C)ccc1O` reads “inactive”; that for `CC(=O)OC1CC2CCC1(C)C2(C)C` (stereo unspecified), “inactive”.
On the same count and under the same terms, the result for `CC(C)(C)c1ccc(CCC=O)cc1` reads “inactive”; that for `CCC=CCCO`, “inactive”; that for `O=C1CCCCC1`, “inactive”.
Same read-out and setting: the result for `COC(=O)c1ccccc1` reads “inactive”; that for `c1cnccn1`, “inactive”.
`CC(=O)c1ccccc1`: the “odorant receptor agonist call” value was “inactive”.
The same measure, in the same setting: the same measure for `CC1=NC(C)SC1C` (stereo unspecified): “inactive”; for `O=C1CCCCCCCCCCCC(=O)OCCO1`: “active”.
The same measure, in the same setting: the same measure for `CCCCCCOC(=O)CCC`: “inactive”; for `CC(C)C(=O)O`: “inactive”.
On the same count and under the same terms, the result for `c1ccc(Oc2ccccc2)cc1` reads “inactive”; that for `CC(=O)OC(C)(C)C1CC=C(C)CC1` (stereo unspecified), “inactive”.
Turning to `CCCCCC(C)=O`, the “odorant receptor agonist call” value was “inactive”.
On the same count and under the same terms, the same measure for `COc1ccccc1O`: “inactive”.

The next assay deals with T3, OR2A1 (Homo sapiens) (UniProt Q8NGT9).
T3 sequence (whole entry): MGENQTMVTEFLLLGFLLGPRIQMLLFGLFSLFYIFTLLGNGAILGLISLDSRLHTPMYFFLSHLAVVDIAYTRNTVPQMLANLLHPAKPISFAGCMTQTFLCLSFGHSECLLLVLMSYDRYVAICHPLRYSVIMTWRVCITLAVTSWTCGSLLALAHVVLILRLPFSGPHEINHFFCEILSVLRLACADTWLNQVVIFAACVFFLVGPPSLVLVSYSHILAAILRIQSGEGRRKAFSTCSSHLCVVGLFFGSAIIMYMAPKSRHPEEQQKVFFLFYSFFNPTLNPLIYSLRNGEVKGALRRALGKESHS
To be noted: stereoisomer not certain. Summed up: as §1
In the case of `C=C(C)C1CC=C(C)C(=O)C1` (stereo unspecified), the “odorant receptor agonist call” value was “inactive”.
Same read-out and setting: the same measure for `C=CCc1ccc(O)c(OC)c1`: “inactive”; for `CC(C)(O)CCCC1=CCC(C=O)CC1` (stereo unspecified): “inactive”; for `CCCCCCCCC=O`: “inactive”.

For the next assay, the target named is T4, OR2A12 (Homo sapiens) (UniProt Q8NGT7).
T4 sequence (whole entry): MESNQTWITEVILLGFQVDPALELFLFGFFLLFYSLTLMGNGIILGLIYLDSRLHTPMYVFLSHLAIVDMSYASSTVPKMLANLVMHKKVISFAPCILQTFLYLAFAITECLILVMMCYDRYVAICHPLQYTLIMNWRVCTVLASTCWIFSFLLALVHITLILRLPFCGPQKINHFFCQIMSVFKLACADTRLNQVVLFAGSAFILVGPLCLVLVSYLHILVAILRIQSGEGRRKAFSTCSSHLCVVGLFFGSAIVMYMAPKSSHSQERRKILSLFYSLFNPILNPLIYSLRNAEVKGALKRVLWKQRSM
The settings on record: stereoisomer not certain. Summed up:
as §1
Take `C=CCSCC=C`: the “odorant receptor agonist call” value is “inactive”.
`CC1=CCC(C(C)(C)O)CC1` (stereo unspecified): the “odorant receptor agonist call” value is “inactive”.
Same read-out and setting: the same measure for `CC12C=CCC1C1CCC3=CC(=O)CCC3(C)C1CC2` (stereo unspecified): “active”.
Still for that read-out and setting: the result for `CCCCCCCC=CC=O` reads “inactive”.
Same read-out and setting: the same measure for `CCCCCCCCCC=O`: “inactive”.
In the case of `CC(=O)OCC=C(C)CCC=C(C)C`, the “odorant receptor agonist call” value was “inactive”.
On the same count and under the same terms, the same measure for `COc1cc(C)ccc1O`: “inactive”; for `CC(=O)OC1CC2CCC1(C)C2(C)C` (stereo unspecified): “inactive”.
Turning to `CC(C)(C)c1ccc(CCC=O)cc1`, the “odorant receptor agonist call” value was “inactive”.
In the case of `CCC=CCCO`, the “odorant receptor agonist call” value was “inactive”.
Turning to `O=C1CCCCC1`, the “odorant receptor agonist call” value is “active”.
Same read-out and setting: the same measure for `COC(=O)c1ccccc1`: “active”.
Still for that read-out and setting: the result for `c1cnccn1` reads “inactive”; that for `CC(=O)c1ccccc1`, “inactive”; that for `CC1=NC(C)SC1C` (stereo unspecified), “active”.
For `O=C1CCCCCCCCCCCC(=O)OCCO1`, the “odorant receptor agonist call” value was “inactive”.
With `CCCCCCOC(=O)CCC`, the “odorant receptor agonist call” value is “inactive”.
Same read-out and setting: the result for `CC(C)C(=O)O` reads “inactive”.
The same measure, in the same setting: the result for `c1ccc(Oc2ccccc2)cc1` reads “inactive”; that for `CC(=O)OC(C)(C)C1CC=C(C)CC1` (stereo unspecified), “inactive”; that for `CCCCCC(C)=O`, “inactive”.
Still for that read-out and setting: the same measure for `COc1ccccc1O`: “inactive”.
